# The list shows a part of the results.
# The chains behind the UniProt entries cited, without tags or fusion partners. Where a name states a change or a piece, a line headed by the entry shows the natural chain unless it says otherwise.
# UniProt Q9Y6J0: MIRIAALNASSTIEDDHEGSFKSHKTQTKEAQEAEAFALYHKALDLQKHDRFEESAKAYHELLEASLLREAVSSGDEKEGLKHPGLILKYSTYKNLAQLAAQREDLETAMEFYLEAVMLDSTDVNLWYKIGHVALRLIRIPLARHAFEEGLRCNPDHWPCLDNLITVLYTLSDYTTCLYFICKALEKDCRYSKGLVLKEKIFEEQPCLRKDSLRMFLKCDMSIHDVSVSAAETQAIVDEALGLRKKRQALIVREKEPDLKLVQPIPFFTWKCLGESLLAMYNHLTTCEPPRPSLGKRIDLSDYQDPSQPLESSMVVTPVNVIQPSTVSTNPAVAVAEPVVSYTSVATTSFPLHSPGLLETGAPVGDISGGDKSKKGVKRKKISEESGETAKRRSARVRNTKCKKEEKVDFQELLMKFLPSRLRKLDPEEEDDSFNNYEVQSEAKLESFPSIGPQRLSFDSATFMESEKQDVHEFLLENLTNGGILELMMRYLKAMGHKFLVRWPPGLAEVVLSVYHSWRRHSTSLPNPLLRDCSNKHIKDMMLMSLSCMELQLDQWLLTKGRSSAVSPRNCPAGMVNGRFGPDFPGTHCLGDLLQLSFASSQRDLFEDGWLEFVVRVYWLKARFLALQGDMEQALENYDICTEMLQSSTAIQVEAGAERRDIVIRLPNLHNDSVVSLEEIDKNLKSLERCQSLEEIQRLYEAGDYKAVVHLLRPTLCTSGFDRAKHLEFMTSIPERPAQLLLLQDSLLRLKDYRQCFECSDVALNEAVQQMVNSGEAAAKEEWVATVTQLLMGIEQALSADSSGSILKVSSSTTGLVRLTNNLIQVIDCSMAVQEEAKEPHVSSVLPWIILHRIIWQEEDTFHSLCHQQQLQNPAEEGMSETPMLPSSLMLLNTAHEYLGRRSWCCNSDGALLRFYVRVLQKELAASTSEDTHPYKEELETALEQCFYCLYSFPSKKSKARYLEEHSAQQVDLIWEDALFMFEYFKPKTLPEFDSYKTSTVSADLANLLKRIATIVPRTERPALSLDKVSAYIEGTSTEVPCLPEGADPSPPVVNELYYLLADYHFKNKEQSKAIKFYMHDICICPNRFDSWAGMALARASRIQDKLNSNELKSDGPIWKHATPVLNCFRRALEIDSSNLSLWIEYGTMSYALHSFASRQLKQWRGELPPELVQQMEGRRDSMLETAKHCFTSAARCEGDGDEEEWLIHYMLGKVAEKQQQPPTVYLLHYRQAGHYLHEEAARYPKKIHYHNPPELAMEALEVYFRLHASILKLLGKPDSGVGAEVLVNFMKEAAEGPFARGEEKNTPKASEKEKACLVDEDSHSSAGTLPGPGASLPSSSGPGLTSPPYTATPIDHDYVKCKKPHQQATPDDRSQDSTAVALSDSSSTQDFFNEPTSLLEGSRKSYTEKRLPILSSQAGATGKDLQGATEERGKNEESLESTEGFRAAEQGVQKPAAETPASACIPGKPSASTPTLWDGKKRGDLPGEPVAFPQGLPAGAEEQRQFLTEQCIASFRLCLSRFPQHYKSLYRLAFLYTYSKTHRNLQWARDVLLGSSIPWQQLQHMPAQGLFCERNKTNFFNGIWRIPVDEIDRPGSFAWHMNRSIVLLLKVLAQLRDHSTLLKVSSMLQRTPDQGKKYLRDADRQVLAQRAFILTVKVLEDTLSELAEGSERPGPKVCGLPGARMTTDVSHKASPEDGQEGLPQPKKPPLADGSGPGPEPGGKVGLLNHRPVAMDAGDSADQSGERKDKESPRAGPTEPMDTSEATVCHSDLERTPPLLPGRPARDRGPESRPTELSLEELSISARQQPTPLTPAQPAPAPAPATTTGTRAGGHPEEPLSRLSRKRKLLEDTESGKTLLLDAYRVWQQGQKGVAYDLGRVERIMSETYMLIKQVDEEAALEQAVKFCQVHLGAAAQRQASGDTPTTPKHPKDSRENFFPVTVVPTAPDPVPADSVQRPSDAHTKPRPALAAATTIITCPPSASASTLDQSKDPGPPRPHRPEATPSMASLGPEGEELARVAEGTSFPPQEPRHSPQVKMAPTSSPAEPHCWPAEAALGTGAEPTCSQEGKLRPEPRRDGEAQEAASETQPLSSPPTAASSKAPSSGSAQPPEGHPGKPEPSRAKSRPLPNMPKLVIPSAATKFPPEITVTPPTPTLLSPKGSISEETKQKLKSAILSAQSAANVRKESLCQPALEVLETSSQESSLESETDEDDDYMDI
# UniProt Q06187: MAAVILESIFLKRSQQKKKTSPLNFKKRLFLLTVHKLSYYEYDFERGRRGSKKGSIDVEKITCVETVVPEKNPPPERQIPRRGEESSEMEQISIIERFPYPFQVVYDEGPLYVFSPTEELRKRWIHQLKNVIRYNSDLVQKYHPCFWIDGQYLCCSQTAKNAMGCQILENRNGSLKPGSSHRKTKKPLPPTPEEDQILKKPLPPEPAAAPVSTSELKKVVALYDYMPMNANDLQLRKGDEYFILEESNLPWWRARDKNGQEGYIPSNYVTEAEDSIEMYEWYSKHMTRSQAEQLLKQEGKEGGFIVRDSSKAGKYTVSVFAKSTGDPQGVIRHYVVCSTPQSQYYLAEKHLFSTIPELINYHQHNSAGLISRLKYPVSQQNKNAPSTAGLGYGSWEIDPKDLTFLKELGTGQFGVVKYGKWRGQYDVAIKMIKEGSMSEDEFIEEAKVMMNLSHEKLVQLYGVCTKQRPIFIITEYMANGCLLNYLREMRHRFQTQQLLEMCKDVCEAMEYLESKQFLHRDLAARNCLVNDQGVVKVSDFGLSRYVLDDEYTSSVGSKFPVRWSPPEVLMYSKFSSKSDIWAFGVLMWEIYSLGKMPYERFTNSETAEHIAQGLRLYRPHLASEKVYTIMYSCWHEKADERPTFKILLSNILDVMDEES
# UniProt P41223: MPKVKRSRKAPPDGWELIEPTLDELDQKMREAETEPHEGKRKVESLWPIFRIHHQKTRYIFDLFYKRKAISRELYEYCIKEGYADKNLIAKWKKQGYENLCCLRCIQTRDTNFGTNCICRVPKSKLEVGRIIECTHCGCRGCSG
# UniProt Q8TCD1: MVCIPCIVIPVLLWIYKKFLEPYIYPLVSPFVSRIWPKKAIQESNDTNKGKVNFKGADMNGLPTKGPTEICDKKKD
# UniProt O14981: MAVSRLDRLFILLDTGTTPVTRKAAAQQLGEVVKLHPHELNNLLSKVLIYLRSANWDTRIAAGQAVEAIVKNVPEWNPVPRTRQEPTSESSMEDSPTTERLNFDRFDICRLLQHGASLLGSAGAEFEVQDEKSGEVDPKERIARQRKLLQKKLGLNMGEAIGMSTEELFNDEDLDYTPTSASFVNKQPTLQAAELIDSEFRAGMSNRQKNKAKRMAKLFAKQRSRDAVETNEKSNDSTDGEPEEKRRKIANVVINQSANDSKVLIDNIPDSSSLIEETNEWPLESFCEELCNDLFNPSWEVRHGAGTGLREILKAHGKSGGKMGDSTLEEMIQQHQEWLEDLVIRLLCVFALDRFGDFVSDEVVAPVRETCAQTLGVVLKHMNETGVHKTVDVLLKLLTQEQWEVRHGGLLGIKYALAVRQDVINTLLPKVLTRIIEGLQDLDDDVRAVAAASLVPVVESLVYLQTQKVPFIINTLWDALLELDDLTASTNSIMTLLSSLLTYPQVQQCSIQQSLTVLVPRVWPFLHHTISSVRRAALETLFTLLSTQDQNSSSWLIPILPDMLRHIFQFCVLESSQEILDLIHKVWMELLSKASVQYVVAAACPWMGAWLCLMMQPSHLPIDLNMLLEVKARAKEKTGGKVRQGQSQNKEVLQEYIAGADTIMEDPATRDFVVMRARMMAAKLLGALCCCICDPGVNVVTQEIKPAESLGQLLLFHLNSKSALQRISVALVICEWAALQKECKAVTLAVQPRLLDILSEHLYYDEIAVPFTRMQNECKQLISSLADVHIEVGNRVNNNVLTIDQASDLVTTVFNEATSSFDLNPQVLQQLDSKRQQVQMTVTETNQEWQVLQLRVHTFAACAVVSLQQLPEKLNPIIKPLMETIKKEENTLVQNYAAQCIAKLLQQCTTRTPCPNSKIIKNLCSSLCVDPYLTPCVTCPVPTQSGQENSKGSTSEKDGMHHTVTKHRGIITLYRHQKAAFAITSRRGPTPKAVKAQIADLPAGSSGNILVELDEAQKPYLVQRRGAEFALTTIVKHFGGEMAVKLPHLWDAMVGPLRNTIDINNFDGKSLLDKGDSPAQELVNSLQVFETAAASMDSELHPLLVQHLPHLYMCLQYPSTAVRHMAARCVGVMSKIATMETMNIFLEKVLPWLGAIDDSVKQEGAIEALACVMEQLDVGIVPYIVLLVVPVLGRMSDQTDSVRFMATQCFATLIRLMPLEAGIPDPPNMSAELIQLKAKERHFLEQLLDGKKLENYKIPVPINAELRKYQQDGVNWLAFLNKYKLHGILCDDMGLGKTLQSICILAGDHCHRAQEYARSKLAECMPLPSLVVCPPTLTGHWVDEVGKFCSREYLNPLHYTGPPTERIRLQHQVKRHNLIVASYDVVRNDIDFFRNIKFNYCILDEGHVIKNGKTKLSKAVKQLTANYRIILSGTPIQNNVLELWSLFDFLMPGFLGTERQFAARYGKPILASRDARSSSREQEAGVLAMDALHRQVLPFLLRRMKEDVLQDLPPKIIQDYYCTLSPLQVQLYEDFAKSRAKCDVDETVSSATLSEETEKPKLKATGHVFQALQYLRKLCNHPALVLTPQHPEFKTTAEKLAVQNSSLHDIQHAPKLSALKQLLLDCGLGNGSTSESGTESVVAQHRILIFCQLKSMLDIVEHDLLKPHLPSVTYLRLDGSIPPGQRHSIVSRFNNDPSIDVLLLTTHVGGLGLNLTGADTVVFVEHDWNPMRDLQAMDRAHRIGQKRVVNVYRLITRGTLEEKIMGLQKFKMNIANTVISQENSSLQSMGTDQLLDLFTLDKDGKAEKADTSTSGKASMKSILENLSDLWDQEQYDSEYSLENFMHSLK
# UniProt Q9NWV4: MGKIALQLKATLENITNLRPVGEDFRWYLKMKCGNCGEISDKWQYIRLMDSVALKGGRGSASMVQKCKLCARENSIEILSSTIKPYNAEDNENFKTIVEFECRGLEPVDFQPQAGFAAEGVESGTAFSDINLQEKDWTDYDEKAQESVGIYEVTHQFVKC
# UniProt A6NDU8: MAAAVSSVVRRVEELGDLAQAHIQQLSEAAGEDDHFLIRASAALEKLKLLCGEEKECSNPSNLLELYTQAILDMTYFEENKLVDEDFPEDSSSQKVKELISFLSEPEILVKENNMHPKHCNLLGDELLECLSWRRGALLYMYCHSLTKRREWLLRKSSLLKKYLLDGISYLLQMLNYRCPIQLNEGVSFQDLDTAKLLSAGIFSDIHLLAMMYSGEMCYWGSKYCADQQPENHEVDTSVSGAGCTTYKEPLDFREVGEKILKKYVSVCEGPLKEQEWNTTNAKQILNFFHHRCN
# UniProt Q6P1X6: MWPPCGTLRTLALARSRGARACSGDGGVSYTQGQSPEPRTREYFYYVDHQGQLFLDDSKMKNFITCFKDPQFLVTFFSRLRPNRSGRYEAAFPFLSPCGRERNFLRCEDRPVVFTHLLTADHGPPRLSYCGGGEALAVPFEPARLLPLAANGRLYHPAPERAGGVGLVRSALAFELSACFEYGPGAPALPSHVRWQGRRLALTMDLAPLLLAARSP
# Compound: CC1Cc2ccccc2N1C(=O)C1CCCN(C1)C(=O)CCl (mixture of isomers) [TRIM25 ligand 11 (diastereomer mixture)]
# Test: probe-labelled cysteine peptide fold change vs DMSO (competition) (log2 fold change); higher = less target engagement (more negative = stronger competition)
# Conditions: THP-1, incubation time: 4 h
# 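Note: competitive chemoproteomic profiling in live THP-1 cells with an iodoacetamide desthiobiotin (IA-DTB) probe, comparing probe-labelled peptide intensities in compound-treated cells against DMSO-treated controls.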
Target,probe-labelled cysteine peptide fold change (10 µM),probe-labelled cysteine peptide fold change (50 µM)
CABIN1_Q9Y6J0_589_FGPDFPGTHCLGDLLQLSFASSQR (UniProt Q9Y6J0),0.0411,-0.0885
BTK_Q06187_633_VYTIMYSCWHEK (UniProt Q06187),0.106,-0.0459
C12orf10_Q9HB07_62_IGTHNGTFHCDEALACALLR (UniProt Q9HB07),-0.0383,-0.259
BUD31_P41223_102_QGYENLCCLR (UniProt P41223),0.0949,0.0889
CAD_P27708_183_ILALDCGLK (UniProt P27708),-0.0145,0.0144
CAD_P27708_1613_SVHICHVAR (UniProt P27708),-0.102,0.397
CAMK2B_Q13554_273_HPWVCQR (UniProt Q13554),0.194,0.117
C16orf62_Q7Z3J2_925_HGCADTR (UniProt Q7Z3J2),-0.191,-0.133
BZW2_Q9Y6E2_270_LSQECPIK (UniProt Q9Y6E2),0.311,0.132
BUB1B_O60566_700_CLQIPEK (UniProt O60566),0.00823,0.371
C18orf32_Q8TCD1_71_GPTEICDK (UniProt Q8TCD1),-0.0577,-0.0508
BTK_Q06187_63_ITCVETVVPEK (UniProt Q06187),-0.046,-0.00326
BTAF1_O14981_109_LNFDRFDICR (UniProt O14981),-0.151,-0.329
C6orf89_Q6UWU4_28_QTGHQCGMSEK (UniProt Q6UWU4),-0.188,-0.211
C1orf123_Q9NWV4_33+36_CGNCGEISDK (UniProt Q9NWV4),0.0401,0.0357
CABIN1_Q9Y6J0_1769_AGPTEPMDTSEATVCHSDLER (UniProt Q9Y6J0),-0.0778,-0.392
BRAF_P15056_696_LMAECLK (UniProt P15056),0.0576,0.00871
BTAF1_O14981_1290_LHGILCDDMGLGK (UniProt O14981),-0.0376,-0.104
CAND1_Q86VP6_1153_ATCTTK (UniProt Q86VP6),-0.0776,-0.101
BRCA1_P38398_1697_TDAEFVCER (UniProt P38398),0.384,0.418
CAB39_Q9Y376_121_TPTVEYICTQQNILFMLLK (UniProt Q9Y376),-0.289,0.386

Target,probe-labelled cysteine peptide fold change (10 µM),probe-labelled cysteine peptide fold change (50 µM)
C16orf62_Q7Z3J2_864_LCETVMAQILEHLK (UniProt Q7Z3J2),-0.0664,-0.045
C7_P10643_743_RILPLTVCK (UniProt P10643),0.501,0.329
C20orf27_Q9GZN8_156_CVGAELEYDSEHSDWHGFD (UniProt Q9GZN8),-0.00603,-0.14
BRD1_O95696_638_NLHEFEEDFDLIIDNCMK (UniProt O95696),0.161,-0.0554
BST1_Q10588_271_LLQCVDHSTHPDCALK (UniProt Q10588),0.0745,-0.0297
C19orf47_Q8N9M1_123_AATESVPCSPSPLAGEIR (UniProt Q8N9M1),0.15,0.0526
CALR_P27797_163_CKDDEFTHLYTLIVRPDNTYEVK (UniProt P27797),0.0271,0.0853
C20orf27_Q9GZN8_106_CEYSAHK (UniProt Q9GZN8),0.0466,-0.0654
C5orf51_A6NDU8_120_HCNLLGDELLECLSWR (UniProt A6NDU8),-0.0141,0.102
C16orf62_Q7Z3J2_665_SMFCNLEPVLVQLIHSVNR (UniProt Q7Z3J2),0.0245,0.147
CAD_P27708_897_QELGICPAVK (UniProt P27708),0.0763,-0.0111
C8orf82_Q6P1X6_107_CEDRPVVFTHLLTADHGPPR (UniProt Q6P1X6),-0.0558,-0.0561
CALCOCO2_Q13137_321_LSENEIICNALQR (UniProt Q13137),-0.161,-0.076
CAMK1_Q14012_355_DCCVEPGTELSPTLPHQL (UniProt Q14012),0.166,0.0671
CAD_P27708_252_VLSEPNPRPVFGICLGHQLLALAIGAK (UniProt P27708),-0.501,-0.364
C8orf33_Q9H7E9_21_AALGHLAGEAAAAPGPGTPCASR (UniProt Q9H7E9),-0.136,-0.197
BRAT1_Q6PJG6_513_LCHPCWEVR (UniProt Q6PJG6),0.0701,-0.318
BTG3_Q14201_238_NKPYRPIPVTWVPPPGMHCDR (UniProt Q14201),-0.313,-0.403
C11orf54_Q9H0W9_154_CHDFQCALLANLFASEGQPGK (UniProt Q9H0W9),-0.101,-0.104
BRAP_Q7Z569_164_SAMLCILTVPAAMTSHDLMK (UniProt Q7Z569),-0.176,-0.0114
CAMLG_P49069_123_GTQLGDKLDSFIKPPECSSDVNLELR (UniProt P49069),-0.134,-0.228

# Part of the list above, with tabs.
Target	probe-labelled cysteine peptide fold change (10 µM)	probe-labelled cysteine peptide fold change (50 µM)
C20orf27_Q9GZN8_106_CEYSAHK (UniProt Q9GZN8)	0.0466	-0.0654
C5orf51_A6NDU8_120_HCNLLGDELLECLSWR (UniProt A6NDU8)	-0.0141	0.102
C16orf62_Q7Z3J2_665_SMFCNLEPVLVQLIHSVNR (UniProt Q7Z3J2)	0.0245	0.147

# Source: the supplement of paper PMC12067093, “Discovery and optimisation of a covalent ligand for TRIM25 and its application to targeted protein ubiquitination” (Chemical Science, 2025)
